The target in this data set is GST-SAFA (scaffold-attachment-factor A, hnRNP U) (UniProt Q00839). The experiment in a line: EMSA. Conditions: salmon sperm DNA competitor; 10 mM HEPES pH 7.9, 1 mM DTT, 50 mM KCl, 2.5 mM MgCl2, 10% glycerol, 0.5 ug (printed 'ig') salmon sperm DNA, 15 min at 4 C; 10-500 ng protein; recombinant protein; protein details: GST (pGEX-4T); label: 32P end label (PNK); probe letters rebuilt from the primers and the genome.

Chains of the proteins cited; added tags and fusions are not shown.
UniProt Q00839, whole entry: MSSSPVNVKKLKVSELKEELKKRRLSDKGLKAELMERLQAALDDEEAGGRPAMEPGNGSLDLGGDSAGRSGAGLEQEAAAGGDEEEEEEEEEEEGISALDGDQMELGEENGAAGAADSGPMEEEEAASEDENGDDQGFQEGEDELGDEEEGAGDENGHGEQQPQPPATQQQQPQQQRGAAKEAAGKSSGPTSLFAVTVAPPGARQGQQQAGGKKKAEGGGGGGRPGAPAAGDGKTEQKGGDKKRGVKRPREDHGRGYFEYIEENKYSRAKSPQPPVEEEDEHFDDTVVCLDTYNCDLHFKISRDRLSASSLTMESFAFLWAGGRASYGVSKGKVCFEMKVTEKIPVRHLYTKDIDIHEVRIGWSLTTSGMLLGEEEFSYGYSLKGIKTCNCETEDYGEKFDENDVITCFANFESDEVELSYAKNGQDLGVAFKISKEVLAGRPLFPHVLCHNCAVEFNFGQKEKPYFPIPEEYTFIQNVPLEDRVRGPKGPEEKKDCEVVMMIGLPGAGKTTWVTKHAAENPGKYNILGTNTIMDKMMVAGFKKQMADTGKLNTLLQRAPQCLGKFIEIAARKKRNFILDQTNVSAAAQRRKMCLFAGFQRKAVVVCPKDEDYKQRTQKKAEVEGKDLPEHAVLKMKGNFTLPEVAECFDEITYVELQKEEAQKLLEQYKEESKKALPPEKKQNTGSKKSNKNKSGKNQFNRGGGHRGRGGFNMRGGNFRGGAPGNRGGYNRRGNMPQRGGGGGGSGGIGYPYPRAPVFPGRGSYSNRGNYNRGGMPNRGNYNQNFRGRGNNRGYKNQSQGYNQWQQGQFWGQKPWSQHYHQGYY

Construct, isoform or probe ends are uncertain for at least one entry. Weaker means in comparison with the reference protein, sequence or condition of that experiment.

Turning to “CGCGGTGCTTGGTCTCTATGAATACGATGACCTAAAGCAAAAAAAGAAGATGGCTATGTCGGTGAAGCTCTATGGAACTGGGGATCAGGAGGCCTGGCAGAAAGGAGTCCTGTTTGCTTCTGGGCAGAACTTGGCATGATGGAGACGCCAGCCAGCGAGATGATGCCAACCAGATTTGCCGAAATTATTGAGAAGAATCTCAAAAGCGCTAGTAGTAAACCGAGTTTCATATCAGACCCAGGTCTTGGATTGAGGAACAGGCAATGGGATCATTCCTCAGTGTGGCCAAAGGATCTGACGAGCCCTCAGTCTTCTTGGAAATTCACTACATAGGCAGCCCCAATGCAGACAAACCACCCCTTGTTTGTTGGGAAAGG (double strand) [CDKN1A promoter 4149-4525 (protrudes into PANDA)]”, the binding result was “binds”.

For the sequence “CTGACTCCCAGCACACACTCACACAAGCACACATGCATCAGATCCCAGCCCTGTCGCAAGGATCTGCTGGCAGATCACATACCCTGTTCAGAGTAACAGGCTAAGGTTTACCTGGGGTCTTTAGAGGTCTCCTGTCTCCTACCATCCCCTTCCTCACCTGAAAACAGGCAGCCCAAGGACAAAATAGCCACCAGCCTCTTCTATGCCAGAGCTCAACATGTTGGGACATGTTCCTGACGGCCAGAAAGCCAATCAGAGCCACAGCCTGCTGCCCAAGCATGTTCCTGGGAAGCAGGCAGCATAGGGATGGAGGGAGGCTCAGCCTGGGGGACAAGAGTGCCCAGTCCAGCCCCCTCCCCAGAGTGCGGTGGAGCAGCATGGGGTAGGGGAATGGTGAAAGGTGGAAAGCCCAAGCCTGAAGAAGGAGGATGTGAGGAAGGCTCAGTGGTG (double strand) [CDKN1A promoter 2029-2478]”, the binding result is given as “binds”.

As to “GAAATGCCTGAAAGCAGAGGGGCTTCAAGGCAGTGGGAGAAGGTGCCTGTCCTCTGCTGGACATTTGACAACCAGCCCTTTGGATGGTTTGGATGTATAGGAGCGAAGGTGCAGACAGCAGTGGGGCTTAGAGTGGGGTCCTGAGGCTGTGCCGTGGCCTTTCTGGGGTTTAGCCACAATCCTGGCCTGACTCCAGGGCGAGGCAGGCCAAGGGGGTCTGCTACTGTGTCCTCCCACCCCTACCTGGGCTCCCATCCCCACAGCAGAGGAGAAAGAAGCCTGTCCTCCCCGAGGTCAGCTGCGTTAGAGGAAGAAGACTGGGCATGTCTGGGCAGAGATTTCCAGACTCTGAGC (double strand) [CDKN1A promoter 1335-1688]”, the binding result is reported as “binds more weakly”.

For “GGAGGCAAAAGTCCTGTGTTCCAACTATAGTCATTTCTTTGCTGCATGATCTGAGTTAGGTCACCAGACTTCTCTGAGCCCCAGTTTCCCCAGCAGTGTATACGGGCTATGTGGGGAGTATTCAGGAGACAGACAACTCACTCGTCAAATCCTCCCCTTCCTGGCCAACAAAGCTGCTGCAACCACAGGGATTTCTTCTGTTCAGGTGAGTGTAGGGTGTAGGGAGATTGGTTCAATGTCCAATTCTTCTGTTTCCCTGGAGATCAGGTTGCCCTTTTTTGGTAGTCTCTCCAATTCCCTCCTTCC (double strand) [CDKN1A promoter 677-981]”, the binding result was “binds”.

Take “GTATTCAGGTGGCTGAGGTGGGAGAATCGCTTGAACCTAGGAGGCGGAGGTTGCAGTGAGCTGAGATCATGCCACCTGCACTCCAGCCTGGGTGACAGAGTGAGACTCCGTCTCAAAAAAAAAATATATAAATCTTTGTGTAAAATGAAAAAAAAATCAAGGCATAAAAATTTCATTGTGTTCTACATTTTTAAATATAAATTGCCTCCTTTAAAATATTTTCATCCATTCATTCAAAAACCTTTTAACTTCAACTGTCCAATTTAAGATAGAGTGAAGACATTTTTGAGTATCTGAACTAAGCATTGTCTTGACTGAAACGAAGTAAGAACTCTATGAGAGTCCTTGTGGGCCTCCCGGTCATGCCTTTCCATAGATAGGGAACCTCATCTTTGTTGGTCATCACACCTGCTATGTC (double strand) [CDKN1A promoter 3141-3558]”: the binding result is on record as “binds more weakly”.

For the origin of these results see PMC4263151.
